From article PMC11443525
No constants are given. Whether binding was seen depends on the method and setting. In cells and extracts the contact can be indirect. A result given as binding can be weak or reduced; the word gives no strength. Tags and fused reporters may be left off the sequences shown.

By UniProt entry, the sequences of proteins in these tests, tags left out. Where a name states a change or a piece, a line headed by the entry shows the natural chain unless it says otherwise.
UniProt O60353: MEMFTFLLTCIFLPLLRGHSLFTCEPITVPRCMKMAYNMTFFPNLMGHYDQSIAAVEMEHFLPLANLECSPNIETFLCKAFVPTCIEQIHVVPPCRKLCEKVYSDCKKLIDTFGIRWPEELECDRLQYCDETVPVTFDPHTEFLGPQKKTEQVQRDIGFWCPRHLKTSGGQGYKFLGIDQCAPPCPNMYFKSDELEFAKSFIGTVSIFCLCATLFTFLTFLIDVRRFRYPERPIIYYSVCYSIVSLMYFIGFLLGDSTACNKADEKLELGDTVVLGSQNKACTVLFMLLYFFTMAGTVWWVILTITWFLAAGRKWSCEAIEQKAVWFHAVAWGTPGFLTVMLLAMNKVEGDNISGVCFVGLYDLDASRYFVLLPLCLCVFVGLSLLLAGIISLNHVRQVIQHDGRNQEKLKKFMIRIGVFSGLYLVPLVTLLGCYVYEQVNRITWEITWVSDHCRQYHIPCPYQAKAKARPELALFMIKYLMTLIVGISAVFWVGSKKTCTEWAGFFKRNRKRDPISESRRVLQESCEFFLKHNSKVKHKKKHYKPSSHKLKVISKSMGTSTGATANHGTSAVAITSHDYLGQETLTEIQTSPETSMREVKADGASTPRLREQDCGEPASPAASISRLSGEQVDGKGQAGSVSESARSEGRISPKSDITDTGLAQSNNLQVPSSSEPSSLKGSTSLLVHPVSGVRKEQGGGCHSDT
UniProt Q13467: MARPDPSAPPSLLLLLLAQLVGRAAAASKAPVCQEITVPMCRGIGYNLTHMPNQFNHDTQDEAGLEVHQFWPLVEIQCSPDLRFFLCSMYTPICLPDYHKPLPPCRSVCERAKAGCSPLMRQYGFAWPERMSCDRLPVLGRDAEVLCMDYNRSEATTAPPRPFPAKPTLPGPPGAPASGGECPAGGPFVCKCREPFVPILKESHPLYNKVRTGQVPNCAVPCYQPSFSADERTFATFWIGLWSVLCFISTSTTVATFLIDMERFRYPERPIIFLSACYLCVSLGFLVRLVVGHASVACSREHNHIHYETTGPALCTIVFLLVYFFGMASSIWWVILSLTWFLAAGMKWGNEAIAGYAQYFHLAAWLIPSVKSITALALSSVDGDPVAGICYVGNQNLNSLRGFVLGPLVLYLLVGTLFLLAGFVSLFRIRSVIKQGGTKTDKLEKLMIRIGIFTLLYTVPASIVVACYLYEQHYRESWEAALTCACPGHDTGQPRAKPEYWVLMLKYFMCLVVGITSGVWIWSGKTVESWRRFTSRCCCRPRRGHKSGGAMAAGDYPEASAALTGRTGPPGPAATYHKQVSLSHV

Key:
[1] = biological target: FZD6 Δ559-Nluc (UniProt O60353); experiment: FRET or BRET; BRET acceptor titration in living HEK293A cells: fixed amount of FZDx-Nluc or mSMO-Nluc plasmid (donor), increasing DEP-mVenus plasmid (acceptor); no ligand; HBSS, coelenterazine h 5 μM
[2] = biological target: FZD5 lacking the extracellular CRD (in the FZD5-DEP-Clamp lacking the CRD) (UniProt Q13467); experiment: FRET or BRET; basal interaction of FZD5 lacking the CRD with DEP (Figure S4B–F); whether by titration or in the unimolecular sensor is not told in the text shown

binding [1]: binds | binding [2]: binds
B1: mVenus-tagged isolated DEP domain of human DVL2 (domain or fragment, UniProt O14641 433-507)
chain: PESGLEVRDRMWLKITIPNAFLGSDVVDWLYHHVEGFPERREARKYASGLLKAGLIRHTVNKITFSEQCYYVFGD
